# At least one structure is not confirmed: it was looked up by name or label, or the drawing left a doubt.
# Test system: B-CLL cells from patients
# Test: PI3K and MEK inhibitors on CD40L signaling and survival in B-CLL cells
# Format: cell-based, human
# Experimental: A PI3K inhibitor (LY294002; Sigma, St. Louis, Mo.) and MEK inhibitor (PD98595; Cell Signaling Technology, Beverly, Mass.) were used to dissect the pathways required for CLL cell survival. In these experiments, 1.0×10^6 B-CLL cells from patients were serum starved in 1% FBS containing media for 4 hours. Serum-starved cells were then pretreated with LY294002 (PI3K inhibitor, 30 μM) or PD98595 (MEK inhibitor, 10 μM). Cell lysates were then collected before and 20 minutes after CD40L stimulation. Western blot analysis with antibodies to p-IKK α/β, p-ERK, p-Akt was conducted, and equal loading was evaluated by probing antibodies to total ERK and β-actin.
smiles,measurement,setting,value
O=c1cc(N2CCOCC2)oc2c(-c3ccccc3)cccc12 [LY294002],IKK/NFkB activation,LY294002 30 μM or PD98595 10 μM,no change of IKK/NFkB activation
same,activation of Akt induced by CD40L,"LY294002 30 μM, 20 minutes after CD40L",inhibited activation of Akt
same,"survival mediated by CD40L (cleaved PARP, caspase-3, Bcl-xl)","LY294002 or PD98595, FIG. 9",induction of cleaved PARP and caspase-3 as well as reduction of Bcl-xl

# Reference: patent US8337851B2, “Methods of monitoring the efficacy of anti-CD40 antibodies in treating a subject for a CD40-expressing cancer” (Novartis AG, priority 2005, dated 2012)
